Drawing on PMC7819943, “Rice protein-binding microarrays: a tool to detect cis-acting elements near promoter regions in rice”, this text covers binding signal for 42 sequences.

Chains of the proteins cited; added tags and fusions are not shown.
UniProt Q0JBA9, entry or part of it: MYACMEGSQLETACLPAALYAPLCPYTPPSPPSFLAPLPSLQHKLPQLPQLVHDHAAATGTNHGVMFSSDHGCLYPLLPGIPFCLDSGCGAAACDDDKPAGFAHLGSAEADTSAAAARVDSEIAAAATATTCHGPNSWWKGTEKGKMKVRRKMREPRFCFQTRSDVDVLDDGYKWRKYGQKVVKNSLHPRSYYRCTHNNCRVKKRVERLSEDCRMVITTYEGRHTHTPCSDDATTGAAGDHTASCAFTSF

This is one part of the list.

The assay concerns the target OsWRKY34 (Oryza sativa, UniProt Q0JBA9 1-250). Briefly: protein-binding microarray (RPBM); PBS, 2% BSA, 51.3 ng/ul salmon testes DNA, 50 uM zinc acetate, 200 nM TF, 25 C, 1 h; high values mean tight binding. Particulars: protein: recombinant; tags: N-terminal polyhistidine and DsRed monomer fusion (pET32a); label: CyDye5-dUTP incorporated in the synthesized complementary strand; 3' TTTTT single-stranded linker to array surface; dsDNA, one strand shown. In a few lines: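 Ni–NTA purification followed expression in E. coli BL21-CodonPlus of transcription factors fused N-terminally to a polyhistidine tag and DsRed. At 200 nM in PBS with 2% BSA, salmon testes DNA and 50 µM zinc acetate, the protein was incubated for 1 h at 25 °C with a custom Agilent array that had been primer-extended with Cy5-dUTP and blocked with 2% BSA. After washing, the array was read on an Axon 4000B scanner. The binding signal is per-feature fluorescence intensity in arbitrary units.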
“TACTCCACCACTGACCACTCCACTCCACAGCTCCACTCCACGGAGTCACCTAGTGCAG”: the binding signal is 9040 fluorescence intensity (a.u.).
Consider “AGTTCTCTACCGTCACGATCTACTCCTATTTGTTAATGAACGGAGTCACCTAGTGCAG”, for which the binding signal was 9370 fluorescence intensity (a.u.).
On to “GGTTAGACCAAATACCCACCCCTACGTGCACCCGACACTACGGAGTCACCTAGTGCAG”, for which the binding signal was 8110 fluorescence intensity (a.u.).
In the case of “AAAGGTGATCGAAAACTTTATATTTCTGGTTTTTGCACTACGGAGTCACCTAGTGCAG”, the binding signal is 8620 fluorescence intensity (a.u.).
With “CACTTATGTCTCTCTCTCTCTCTCTCTCTCTCTCTCGCACCGGAGTCACCTAGTGCAG”, the binding signal was 11000 fluorescence intensity (a.u.).
For the sequence “TTACCTTTACATCCATCCATCAGTTTCAGATAAAATATTTCGGAGTCACCTAGTGCAG”, the binding signal was 8570 fluorescence intensity (a.u.).
For the sequence “CCGCCCTCGACTCCCGTCTCCTCGCCTGCCGCTGGCGCCGCGGAGTCACCTAGTGCAG”, the binding signal was 8490 fluorescence intensity (a.u.).
Then “GATGTTTTCACTTCTTTTTCAGGTTGACTGTCATAATTTTCGGAGTCACCTAGTGCAG”, with 11800 fluorescence intensity (a.u.).
As for “CCCGCGCCGGACGCCCGCCAATGAGCATTCCCGGTTTTTTCGGAGTCACCTAGTGCAG”, the binding signal was 8280 fluorescence intensity (a.u.).
Then “AGGGTTTCGCGTCACGGAGGGGAGGGGATCGAGAGCTCCTCGGAGTCACCTAGTGCAG”, with 12000 fluorescence intensity (a.u.); and “CCCTGGAGCTGTAGTACTACTGTTTTCTTTTTCCCTTTTACGGAGTCACCTAGTGCAG”, with 9250 fluorescence intensity (a.u.); and “CCACTTTCTCTCTCATCTCACATTCTCTTTCTCTCTCTCTCGGAGTCACCTAGTGCAG”, with 8340 fluorescence intensity (a.u.).
For the sequence “GGTGGAGGTGGAGATATATCCATTATACATGTGTCATGTGCGGAGTCACCTAGTGCAG”, the binding signal is 13000 fluorescence intensity (a.u.).
On to “CTCTCTCTCTCTCTCTCTCTCTCTCTTGCCATTTAAAAGACGGAGTCACCTAGTGCAG”, for which the binding signal was 9660 fluorescence intensity (a.u.).
Regarding “ATAGAGGGAGCTTCACCTGTTGCTTTGCGCCACGTGTCATCGGAGTCACCTAGTGCAG”, the binding signal is 8620 fluorescence intensity (a.u.).
For “AGTTCGGATCCAAACTTCAGTCCTTTTCCATCACATCAACCGGAGTCACCTAGTGCAG”, the binding signal was 8540 fluorescence intensity (a.u.).
Regarding “GAGATATTGGACATATTAGGTTTTTACGAGTAATTTGCATCGGAGTCACCTAGTGCAG”, the binding signal is 8430 fluorescence intensity (a.u.).
Then “CTGTCCGAGGTCGTTTACTGGTCAGATATATCCATATATTCGGAGTCACCTAGTGCAG”, with 8330 fluorescence intensity (a.u.).
In the case of “AGCCGGGGAGGGGTAGTTTTAGGGTTCGGAGGGCACCATGCGGAGTCACCTAGTGCAG” it was 15700 fluorescence intensity (a.u.).
Turning to “TCAGGCTCTCACTCGCGCTGCATGCCACACTGCTTCTTCTCGGAGTCACCTAGTGCAG”, the binding signal is 16400 fluorescence intensity (a.u.).
For “GGTGAAGCTCTGCGCTGACACGTTGATGCAGCGGAGCACGCGGAGTCACCTAGTGCAG”, the binding signal is 18900 fluorescence intensity (a.u.).
As for “TCTCTGACGCCAGATCAACTGCACGATTTCTCCAATCTTTCGGAGTCACCTAGTGCAG”, the binding signal was 8860 fluorescence intensity (a.u.).
In the case of “AGAGGTTTGGGGTTGGTTCATCTCGCGGGCTTGGGCGGCGCGGAGTCACCTAGTGCAG” it was 14400 fluorescence intensity (a.u.).
In the case of “ATGTTGTTCTCTCCCTATTTATCTCTCAGCGTCTCTATGTCGGAGTCACCTAGTGCAG” it was 9510 fluorescence intensity (a.u.); in that of “AGCGATACTCTACTGCTACCTTGTCCCAACATGCTGGGCTCGGAGTCACCTAGTGCAG”, 8260 fluorescence intensity (a.u.); in that of “TCCTTAATTTTCATTTCTTTTTCTTAACCACTTAATTACTCGGAGTCACCTAGTGCAG”, 8930 fluorescence intensity (a.u.).
Consider “CACTTCTCCACGCCGCCGTCGCTGAGTTCTCCTTATCTTCCGGAGTCACCTAGTGCAG”, for which the binding signal was 11400 fluorescence intensity (a.u.).
In the case of “CATGTTGTAGCACATTTGGCATCTCTCCAGTAATGACTAACGGAGTCACCTAGTGCAG” it was 8060 fluorescence intensity (a.u.); in that of “TTTACATATTGACTTTTCGAGCTCATTTGTCATGCCCCGTCGGAGTCACCTAGTGCAG”, 8620 fluorescence intensity (a.u.); in that of “GCTGGCTTGACCTGTTCTTCCGGACTCCGTTTCGTTCCCACGGAGTCACCTAGTGCAG”, 9430 fluorescence intensity (a.u.).
Then “GTATAGTACATGTAGCTCTTAAAATTTTGTTGCAATCGCACGGAGTCACCTAGTGCAG”, with 9830 fluorescence intensity (a.u.); and “GCTCTCTCATTTTCATAATTTAAGTCATTAGTTTTATTCTCGGAGTCACCTAGTGCAG”, with 9180 fluorescence intensity (a.u.).
As for “GTCATCCTCTCCTACACCAGTACCGGTCATCCAACACATTCGGAGTCACCTAGTGCAG”, the binding signal is 9280 fluorescence intensity (a.u.).
Take “TCACGCTGACCAAACACCATCTGTTATTCTGTTTGTTTGTCGGAGTCACCTAGTGCAG”: the binding signal was 9030 fluorescence intensity (a.u.).
Then “GTGCTGCGCGCGTCCGTTTTCTTGGCTGTTCTTGGGTGGGCGGAGTCACCTAGTGCAG”, with 8690 fluorescence intensity (a.u.); and “TCCATCCAGCTTCAGCCGCCACCGGTCTCCATCCCGTCCTCGGAGTCACCTAGTGCAG”, with 9330 fluorescence intensity (a.u.); and “TTGGTTGGGTGCAGCGTAGCAATCAGTTGGGCGGGTGGGGCGGAGTCACCTAGTGCAG”, with 14000 fluorescence intensity (a.u.).
As to “GTGGCTCGCGATCATATTGTCTCTATGCTTATCCATGTGCCGGAGTCACCTAGTGCAG”, the binding signal is 9070 fluorescence intensity (a.u.).
For “AAGCTAAATATATCCGTACTCACGCTTTTTTAAACTATTTCGGAGTCACCTAGTGCAG”, the binding signal was 8220 fluorescence intensity (a.u.).
Take “CCAGACAGCCTCTCCTTGCCGTTGATCCACACACACACAACGGAGTCACCTAGTGCAG”: the binding signal was 9480 fluorescence intensity (a.u.).
On to “AGCAGCTGCTCAAGATTGCTCGTTGGTGTGGGAGAAGATCCGGAGTCACCTAGTGCAG”, for which the binding signal is 9570 fluorescence intensity (a.u.).
Take “GGCCATCTCTTTCCATTCTCTCCTCACATCATCTTGATAGCGGAGTCACCTAGTGCAG”: the binding signal was 12100 fluorescence intensity (a.u.).
